From PubChem BioAssay AID504444 (National Center for Advancing Translational Sciences (NCATS), 2011)
In all, about 360,000 compounds went through this assay and about 7,500 (2.1%) were called active. Inconclusive means that the source gave no clear call. Such entries were picked first, then a sample of the others. Calls follow the shape of the dose curve; as a rule, active = well fitted inhibition curve with a large enough effect; inconclusive = small, poorly fitted or top-dose-only effect, or effect the other way; inactive = flat fitted curve, though single readings scatter. Where the call is inconclusive, the potency comes from a doubtful curve fit.
% is scaled to controls: 0 for no effect and ±100 for the full control effect; potency is read from the fitted curve at half-maximal effect.

Assay: Nrf2 qHTS screen for inhibitors; also: nearly all actives have a fitted effect of over 60% in size
Settings: A549 ARE-Fluc reporter, luciferase luminescence, 18-24 h; activity change, negative = inhibition: at 46 µM (top of the series)
Outline: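 A549 ARE_Fluc cells (5000/well, 5% FBS OPTI-MEM) pre-incubated 2 h, then treated with compounds 18-24 h at 37C/5% CO2 in concentration-response. CellTiter-Fluor viability read first; BugLite luciferase luminescence after 15 min at room temperature gives Nrf2 activity.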
In the case of O=C(CC1S/C(=N/N=C2CCCCCC2)NC1=O)Nc1ccc(Br)cc1F (configuration not stated), the Potency was “inactive”. In the case of CSCCC(NS(=O)(=O)c1cccc(C(F)(F)F)c1)C(=O)N1CCN(C(=O)c2ccco2)CC1 (configuration not stated), the Potency was inconclusive: 0.0326 µM [falling, partial curve, poor fit]. In the case of CCOC(=O)c1c(-c2ccc(C)o2)csc1NC(=S)NC(=O)c1ccc(F)cc1, the Potency was inconclusive: 29.1 µM [falling, single point]. For CCOc1cc(/C=N/Nc2cccc(C(=O)O)c2)ccc1OC(=O)c1ccccc1, the Potency was inconclusive: 18.4 µM [activator, partial curve]. In the case of CN1/C(=C\C(=S)NC(=O)c2ccccc2Cl)C(C)(C)c2ccccc21, the Potency was inconclusive: 32.6 µM [falling, single point]. For COc1ccccc1-n1cnc2cc(NS(=O)(=O)c3ccc(Br)cc3)ccc21, the Potency was inconclusive: 29.1 µM [falling, single point]. For CCc1ccc(CNC(=O)C2CCCN(S(=O)(=O)N3CC(C)CC(C)C3)C2)cc1 (configuration not stated), the Potency was inconclusive: 11.6 µM [falling, partial curve]. With COC(=O)c1ccc(NC(=O)c2cccc3c2C(=O)N(C2CCCCC2)C3)cc1 the Potency was inconclusive: 18.4 µM [activator, partial curve, poor fit]. In the case of N/C(=N\OC(=O)Cc1ccccc1[N+](=O)[O-])c1cccc(Br)c1, the Potency was inconclusive: 0.461 µM [activator, full curve, poor fit]. With Cc1ccc2cc3c(N)[nH]nc3nc2c1 the Potency was “inactive”. In the case of C/C(=N\Nc1ccc(C(=O)O)cc1)c1ccc(Cl)s1, the Potency was inconclusive: 0.731 µM [activator, partial curve]. In the case of COC(=O)CC1Oc2ccc(C)cc2-n2cc(-c3ccc(F)cc3)nc21 (configuration not stated), the Potency was “inactive”. In the case of O=C(O)c1cccc(-c2noc(-c3ccccc3F)n2)c1, the Potency was inconclusive: 29.1 µM [falling, single point]. In the case of CCOc1ccc2nc(NC(=O)CN3CCC(n4nnc5cc(F)ccc54)CC3)sc2c1, the Potency was inconclusive: 29.1 µM [falling, single point]. In the case of COc1ccc(OCc2cc(C(=O)N(C)CCC3CCOCC3)no2)c(Cl)c1, the Potency was inconclusive: 11.6 µM [activator, partial curve]. With O=C(O)c1ccc2c(c1)C(=O)N(c1cccc(-c3nc4ccccc4s3)c1)C2=O the Potency was inconclusive: 10.3 µM [falling, partial curve]. With CC(C)(C)NC(=O)c1ccc2c3c(cccc13)CC2 the Potency was inconclusive: 10.3 µM [activator, partial curve]. In the case of O=C(Nc1ccccc1C(=O)N/N=C/c1ccncc1)c1ccccc1, the Potency was inconclusive: 29.1 µM [activator, single point]. With CCOC(=O)c1scc(-c2ccccc2)c1S(=O)(=O)N1CCN(c2ccccc2OC)CC1 the Potency was inconclusive: 18.4 µM [falling, single point]. With COc1cccc(OC)c1/C(O)=C(\C#N)c1nc2ccccc2[nH]1 the Potency was “inactive”. For NC(=S)N/N=C/c1ccccc1OCCSc1ccc(Cl)cc1, the Potency was inconclusive: 25.9 µM [falling, single point]. In the case of O=C(Cc1ccccc1)Nc1ccc(NC(=O)c2ccco2)nc1, the Potency was inconclusive: 4.61 µM [activator, single point]. With Cc1ccc(CNC(=O)CSc2nc3n[nH]c(C)c3c(=N)n2-c2cccc(C)c2)cc1 the Potency was active: 14.6 µM. With C/C(N=Nc1nc2ccccc2s1)=N\Nc1ccccc1O the Potency was inconclusive: 29.1 µM [falling, single point]. In the case of CCOc1ccc(NC(=O)Cn2cc(S(=O)(=O)N3CCN(c4ccccc4F)CC3)c3ccccc3c2=O)cc1, the Potency was “inactive”. For CCOC(=O)c1ccc(NC(=S)NCCCn2ccnc2)cc1, the Potency was inconclusive: 3.66 µM [falling, single point]. For O=C(Nc1ccc(S(=O)(=O)N2CCCCC2)cc1)c1ccncc1, the Potency was inconclusive: 22.4 µM [falling, single point]. In the case of COc1ccc(-c2noc(-c3ccc(N4CCC(C)CC4)c([N+](=O)[O-])c3)n2)cc1OC, the Potency was active: 20.6 µM. With COc1cc(OC)cc(-c2cc3nc(C)c(CCC(=O)NC(C)CCc4ccco4)c(C)n3n2)c1 (configuration not stated) the Potency was inconclusive: 25.9 µM [falling, partial curve, poor fit]. With CCC(=O)Nc1sc(Cc2ccc3c(c2)OCO3)c(C)c1C(N)=O the Potency was inconclusive: 18.4 µM [falling, partial curve, poor fit]. For N=c1c2c(n(Cc3ccc(Cl)cc3)c3c1CCC3)CCC2, the Potency was inconclusive: 3.26 µM [falling, full curve, poor fit]. For CC1Cc2ccccc2N1C(=O)COC(=O)c1ccc(S(=O)(=O)N(C)C)cc1 (configuration not stated), the Potency was inconclusive: 10.3 µM [activator, partial curve, poor fit]. With CC/C=C1/N=C2C(=O)N(C)C(=O)N=C2N(C)N1 the Potency was inconclusive: 0.164 µM [falling, partial curve, poor fit]. In the case of CCCCNc1nc2c(c(=O)n(Cc3ccc(Cl)c(Cl)c3)c(=O)n2C)n1C, the Potency was inconclusive: 20.6 µM [falling, single point]. In the case of Nc1nc(Nc2ccccc2F)nc(NCc2ccccc2)c1[N+](=O)[O-], the Potency was inconclusive: 16.4 µM [falling, single point]. With COc1ccc(NC(=O)C2CCCN(S(=O)(=O)c3ccc4c(c3)CC(C)N4C(C)=O)C2)cc1 (configuration not stated) the Potency was inconclusive: 13 µM [falling, partial curve, poor fit]. In the case of COc1cc2c(c(OC)c1OC)C(=O)CC2, the Potency was “inactive”. In the case of COc1ccc(C2=NOC(Cn3nc(-c4ccccc4)cc3C(=O)NCc3cccs3)C2)cc1 (configuration not stated), the Potency was inconclusive: 5.8 µM [falling, full curve, poor fit]. With CN1c2ccccc2N(C)C1c1ccc2c(c1)OCO2 the Potency was inconclusive: 7.31 µM [falling, partial curve]. For Cc1cccc(-c2c3c(=O)n(C)c(=O)n(C)c3c3cnc4ccccc4n23)c1, the Potency was “inactive”. In the case of O=C1C(=Cc2ccco2)CCC1=Cc1ccco1, the Potency was “inactive”. For Cc1cc(C)c(C2=CSC3=NS(=O)(=O)CCN23)c(C)c1, the Potency was inconclusive: 29.1 µM [falling, single point]. For O=C(Nc1cccc(S(=O)(=O)NC2=NCCC2)c1)c1c(F)cccc1Cl, the Potency was inconclusive: 29.1 µM [falling, single point]. For COc1ccc(C2c3[nH]c4ccc(OC)cc4c3CCN2C(=O)Nc2ccccc2)cc1 (configuration not stated), the Potency was active: 14.6 µM. For CN1CCC(OC(=O)c2cc3cc(Cl)cc(Cl)c3oc2=O)CC1, the Potency was inconclusive: 7.31 µM [falling, partial curve]. With Cc1csc(=O)n1CC(=O)OCC(=O)c1c(N)n(CC(C)C)c(=O)n(C)c1=O the Potency was inconclusive: 18.4 µM [falling, partial curve]. For CC(=O)Nc1ccc(S(=O)(=O)Nc2cccc(-c3nc4ccccc4o3)c2)cc1, the Potency was inconclusive: 14.6 µM [falling, partial curve, poor fit]. For Cc1nc(-c2ccc3c(c2)CCC(=O)N3)cs1, the Potency was inconclusive: 29.1 µM [activator, single point]. With Cc1ccc(NC(=O)Cn2cc(S(=O)(=O)c3ccccc3)c(=O)c3cc4c(cc32)OCO4)cc1 the Potency was inconclusive: 18.4 µM [activator, single point]. With Cc1c(C(=O)NC2CCCc3ccccc32)cccc1[N+](=O)[O-] (configuration not stated) the Potency was inconclusive: 14.6 µM [falling, partial curve, poor fit]. For O=C(N/N=C/c1cccs1)c1n[nH]c2c1CCC2, the Potency was “inactive”. In the case of CSc1ncccc1C(=O)OCCCC(=O)c1ccc(F)cc1, the Potency was inconclusive: 29.1 µM [falling, single point]. For O=S(=O)(Nc1ccc(-c2nc3cccnc3s2)cc1)c1cccs1, the activity change, negative = inhibition was inconclusive: 18.3% [activator]. For C=CCOC(=O)C1=C(C)NC(C)=C(C(=O)OCC=C)C1c1cccs1, the Potency was active: 20.6 µM. For COc1ccccc1NC(=O)/C=C1\NC(=O)CS1, the Potency was inconclusive: 2.31 µM [activator, full curve, poor fit]. For CSc1ncc(Cl)c(C(=O)Nc2ccc(C)c(C)c2)n1, the Potency was “inactive”. In the case of Cc1ccc(NC(=O)C(Cc2ccccc2)n2cccc2)cc1C (configuration not stated), the Potency was inconclusive: 29.1 µM [falling, single point]. In the case of Cc1ccc2cc(C#N)c(NCCNC(=O)C3CC3)nc2c1C, the Potency was active: 7.31 µM. In the case of O=C(Nc1nc(=O)c2ccccc2s1)c1ccc(Cl)cc1, the Potency was inconclusive: 4.61 µM [activator, full curve]. With O=C(Nc1cccnc1)c1sc(Nc2ccccc2F)nc1-c1ccccc1 the Potency was “inactive”. With O=C(N=C1SC2CS(=O)(=O)CC2N1CCc1ccc(F)cc1)C1CCCCC1 (configuration not stated) the Potency was inconclusive: 20.6 µM [activator, single point]. With Cc1ccc(OCC(=O)O/N=C(\N)c2cccc([N+](=O)[O-])c2)cc1C the Potency was inconclusive: 16.4 µM [activator, partial curve]. For O=C(NCc1ccc(Cl)cc1)c1cnn2ccccc12, the Potency was inconclusive: 6.51 µM [activator, single point]. For O=C(Nc1ccc(Oc2ccsc2C(=O)O)cc1)c1ccccc1, the Potency was “inactive”. With N=C(N)SCc1nc2ccccc2c(=O)n1-c1ccccc1 the Potency was inconclusive: 9.2 µM [activator, partial curve, poor fit]. With CCOC(=O)c1cnc2ccc(OC)cc2c1Nc1ccc2c(c1)OCCO2 the Potency was inconclusive: 23.1 µM [falling, single point]. For Cc1cc2nc(-c3cccc(NC(=O)CSc4ccc(Cl)cc4)c3)oc2cc1C, the Potency was inconclusive: 7.31 µM [activator, partial curve].
